Test results taken from article PMC12214887.
No constants are given. Whether binding was seen depends on the method and setting. Binding seen in cells or lysates may run through a third protein. Binding calls can cover weak binding; strength is not graded here.

Amino acid sequences for entries named in this document (tags omitted).
UniProt P59676: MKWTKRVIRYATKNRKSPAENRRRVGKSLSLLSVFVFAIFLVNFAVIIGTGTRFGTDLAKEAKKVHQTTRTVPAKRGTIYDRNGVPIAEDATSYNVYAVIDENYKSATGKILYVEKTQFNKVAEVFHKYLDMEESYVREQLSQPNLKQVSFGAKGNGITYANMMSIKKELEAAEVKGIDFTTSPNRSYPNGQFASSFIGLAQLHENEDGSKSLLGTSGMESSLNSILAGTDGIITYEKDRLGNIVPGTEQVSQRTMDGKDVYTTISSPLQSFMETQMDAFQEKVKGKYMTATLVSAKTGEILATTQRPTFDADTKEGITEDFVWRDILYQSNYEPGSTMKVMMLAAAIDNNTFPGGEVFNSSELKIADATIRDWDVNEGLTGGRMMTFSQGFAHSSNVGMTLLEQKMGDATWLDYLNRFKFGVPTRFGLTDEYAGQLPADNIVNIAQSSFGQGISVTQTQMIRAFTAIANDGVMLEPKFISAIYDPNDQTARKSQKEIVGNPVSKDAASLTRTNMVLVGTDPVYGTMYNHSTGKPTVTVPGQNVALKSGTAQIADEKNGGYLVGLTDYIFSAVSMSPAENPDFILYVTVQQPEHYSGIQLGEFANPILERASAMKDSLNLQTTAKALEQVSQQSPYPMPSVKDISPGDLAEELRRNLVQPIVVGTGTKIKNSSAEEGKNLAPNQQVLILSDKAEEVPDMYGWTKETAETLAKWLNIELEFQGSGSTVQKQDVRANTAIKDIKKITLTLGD

How the values were obtained:
[1] = target: T1, mNeonGreen-DivIB (Streptococcus pneumoniae) (UniProt Q8DQM0); experiment: co-IP; non-crosslinked; membranes solubilized with 0.6% Igepal CA-630 in Buffer B (150 mM NaCl, 10 mM Tris-HCl pH8); mNeonGreen-Trap magnetic agarose beads, 6 h at 4 °C; immunoblot with anti-ALFA or anti-HaloTag antibodies; competent (15 min after CSP) or non-competent cultures
T1 sequence: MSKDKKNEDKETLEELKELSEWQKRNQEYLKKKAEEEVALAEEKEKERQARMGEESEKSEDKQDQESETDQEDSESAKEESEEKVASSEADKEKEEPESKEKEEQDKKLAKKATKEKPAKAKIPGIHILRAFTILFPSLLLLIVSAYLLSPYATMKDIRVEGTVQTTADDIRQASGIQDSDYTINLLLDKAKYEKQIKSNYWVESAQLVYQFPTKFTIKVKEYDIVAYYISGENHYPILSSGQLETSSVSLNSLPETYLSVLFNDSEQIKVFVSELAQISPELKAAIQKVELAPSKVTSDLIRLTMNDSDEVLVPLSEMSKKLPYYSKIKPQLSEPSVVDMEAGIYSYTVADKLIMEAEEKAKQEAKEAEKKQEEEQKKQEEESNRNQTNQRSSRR

[2] = target: FtsW-SmBit (Streptococcus pneumoniae); experiment: split reporter; split-luciferase complementation (LgBit/SmBit) in living S. pneumoniae cells 15 min after competence induction with CSP1 at 37 °C; NanoGlo substrate, luminescence in a plate reader
[3] = target: LgBit-ComM (Streptococcus pneumoniae); experiment: as above

Q: Which binding [1] does the source give for ALFA-ComM (from UniProt A0ACD7PTF6) here?
A: binds

Q: For LgBit-PBP2x (from UniProt P59676 1-750), which binding [2] is on record?
A: binds

Q: Which binding [3] does the source give for SmBit-PBP2x (from UniProt P59676 1-750) here?
A: no binding

B1: SmBit-DivIB (protein, UniProt Q8DQM0 1-396)
chain: MSKDKKNEDKETLEELKELSEWQKRNQEYLKKKAEEEVALAEEKEKERQARMGEESEKSEDKQDQESETDQEDSESAKEESEEKVASSEADKEKEEPESKEKEEQDKKLAKKATKEKPAKAKIPGIHILRAFTILFPSLLLLIVSAYLLSPYATMKDIRVEGTVQTTADDIRQASGIQDSDYTINLLLDKAKYEKQIKSNYWVESAQLVYQFPTKFTIKVKEYDIVAYYISGENHYPILSSGQLETSSVSLNSLPETYLSVLFNDSEQIKVFVSELAQISPELKAAIQKVELAPSKVTSDLIRLTMNDSDEVLVPLSEMSKKLPYYSKIKPQLSEPSVVDMEAGIYSYTVADKLIMEAEEKAKQEAKEAEKKQEEEQKKQEEESNRNQTNQRSSRR
Q: For B1, which binding [3] is on record?
A: binds

B2: DprA-SmBit (protein, UniProt Q8DPI7 1-282)
chain: MKITNYEIYKLKKSGLTNQQILKVLEYGENVDQELLLGDIADISGCRNPAVFMERYFQIDDAHLSKEFQKFPSFSILDDCYPWDLSEIYDAPVLLFYKGNLDLLKFPKVAVVGSRACSKQGAKSVEKVIQGLENELVIVSGLAKGIDTAAHMAALQNGGKTIAVIGTGLDVFYPKANKRLQDYIGNDHLVLSEYGPGEQPLKFHFPARNRIIAGLCRGVIVAEAKMRSGSLITCERAMEEGRDVFAIPGSILDGLSDGCHHLIQEGAKLVTSGQDVLAEFEF
Q: For B2, which binding [3] is on record?
A: no binding
